Assay results taken from the supplement of paper PMC10849652.
The list shows a part of the results.

Sequences of proteins named here, by UniProt entry; tags and fusion partners are left off. A change or cut given only in a name is not applied to a line headed by its entry.
MTHFD1, A0A384N5Y3, UniProt A0A384N5Y3, whole entry, looked up: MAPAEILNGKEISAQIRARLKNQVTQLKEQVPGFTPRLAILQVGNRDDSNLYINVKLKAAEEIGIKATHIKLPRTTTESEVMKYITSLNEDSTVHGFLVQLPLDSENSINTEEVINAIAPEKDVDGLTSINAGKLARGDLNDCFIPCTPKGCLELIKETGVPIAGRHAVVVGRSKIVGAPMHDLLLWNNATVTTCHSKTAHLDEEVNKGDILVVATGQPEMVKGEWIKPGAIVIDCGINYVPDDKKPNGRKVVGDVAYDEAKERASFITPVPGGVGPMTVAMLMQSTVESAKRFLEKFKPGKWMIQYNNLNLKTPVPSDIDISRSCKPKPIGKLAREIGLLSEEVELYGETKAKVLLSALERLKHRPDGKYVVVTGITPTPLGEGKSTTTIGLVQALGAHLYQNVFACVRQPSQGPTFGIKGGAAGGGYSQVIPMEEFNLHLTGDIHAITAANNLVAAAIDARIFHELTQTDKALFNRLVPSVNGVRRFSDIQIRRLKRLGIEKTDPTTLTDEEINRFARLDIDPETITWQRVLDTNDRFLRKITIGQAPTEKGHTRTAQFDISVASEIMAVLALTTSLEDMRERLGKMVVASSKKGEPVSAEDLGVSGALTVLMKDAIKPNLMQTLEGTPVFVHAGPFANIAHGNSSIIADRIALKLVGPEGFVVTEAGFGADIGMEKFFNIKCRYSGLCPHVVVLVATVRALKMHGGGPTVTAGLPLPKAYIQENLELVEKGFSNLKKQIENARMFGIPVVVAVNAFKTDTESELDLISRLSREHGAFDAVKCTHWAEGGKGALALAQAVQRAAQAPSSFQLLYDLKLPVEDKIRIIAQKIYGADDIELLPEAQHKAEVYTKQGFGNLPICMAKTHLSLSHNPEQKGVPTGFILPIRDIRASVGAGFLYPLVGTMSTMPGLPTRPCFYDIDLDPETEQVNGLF
UniProt P00846: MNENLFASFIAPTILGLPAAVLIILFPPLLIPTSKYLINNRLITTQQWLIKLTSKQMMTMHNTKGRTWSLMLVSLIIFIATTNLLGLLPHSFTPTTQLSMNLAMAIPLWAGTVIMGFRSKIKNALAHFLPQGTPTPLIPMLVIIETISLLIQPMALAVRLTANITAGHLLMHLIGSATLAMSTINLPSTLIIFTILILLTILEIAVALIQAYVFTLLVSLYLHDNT
UniProt P58546, whole entry, looked up: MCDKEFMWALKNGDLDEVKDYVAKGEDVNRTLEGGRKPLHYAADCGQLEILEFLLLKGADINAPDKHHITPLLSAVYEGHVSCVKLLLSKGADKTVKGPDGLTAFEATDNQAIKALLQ
UniProt Q96E29: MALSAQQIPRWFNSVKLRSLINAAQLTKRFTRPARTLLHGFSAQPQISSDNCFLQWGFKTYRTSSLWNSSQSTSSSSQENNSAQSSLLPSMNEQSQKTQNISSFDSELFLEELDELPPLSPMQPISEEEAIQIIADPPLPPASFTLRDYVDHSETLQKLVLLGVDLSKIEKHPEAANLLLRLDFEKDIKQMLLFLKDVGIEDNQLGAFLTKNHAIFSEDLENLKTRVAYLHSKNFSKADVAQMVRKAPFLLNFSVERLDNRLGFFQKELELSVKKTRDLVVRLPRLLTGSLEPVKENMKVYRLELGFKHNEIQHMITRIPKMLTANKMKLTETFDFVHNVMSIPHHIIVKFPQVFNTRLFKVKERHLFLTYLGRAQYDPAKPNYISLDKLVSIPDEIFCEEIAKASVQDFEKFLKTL
UniProt P00403, whole entry, looked up: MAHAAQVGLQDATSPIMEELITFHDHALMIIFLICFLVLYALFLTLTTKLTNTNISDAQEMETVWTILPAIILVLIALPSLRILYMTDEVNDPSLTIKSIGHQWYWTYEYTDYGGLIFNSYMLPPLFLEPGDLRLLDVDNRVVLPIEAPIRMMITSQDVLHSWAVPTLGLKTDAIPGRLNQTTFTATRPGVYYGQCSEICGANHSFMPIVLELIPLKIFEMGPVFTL
UniProt Q9Y6C9: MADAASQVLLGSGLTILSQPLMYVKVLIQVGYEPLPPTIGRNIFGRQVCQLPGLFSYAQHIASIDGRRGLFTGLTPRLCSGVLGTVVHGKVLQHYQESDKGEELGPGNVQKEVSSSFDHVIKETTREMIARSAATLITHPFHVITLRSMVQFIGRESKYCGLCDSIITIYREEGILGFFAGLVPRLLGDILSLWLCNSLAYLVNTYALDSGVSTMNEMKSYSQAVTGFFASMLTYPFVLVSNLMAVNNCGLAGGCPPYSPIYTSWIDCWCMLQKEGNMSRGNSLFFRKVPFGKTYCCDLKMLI
UniProt Q13496: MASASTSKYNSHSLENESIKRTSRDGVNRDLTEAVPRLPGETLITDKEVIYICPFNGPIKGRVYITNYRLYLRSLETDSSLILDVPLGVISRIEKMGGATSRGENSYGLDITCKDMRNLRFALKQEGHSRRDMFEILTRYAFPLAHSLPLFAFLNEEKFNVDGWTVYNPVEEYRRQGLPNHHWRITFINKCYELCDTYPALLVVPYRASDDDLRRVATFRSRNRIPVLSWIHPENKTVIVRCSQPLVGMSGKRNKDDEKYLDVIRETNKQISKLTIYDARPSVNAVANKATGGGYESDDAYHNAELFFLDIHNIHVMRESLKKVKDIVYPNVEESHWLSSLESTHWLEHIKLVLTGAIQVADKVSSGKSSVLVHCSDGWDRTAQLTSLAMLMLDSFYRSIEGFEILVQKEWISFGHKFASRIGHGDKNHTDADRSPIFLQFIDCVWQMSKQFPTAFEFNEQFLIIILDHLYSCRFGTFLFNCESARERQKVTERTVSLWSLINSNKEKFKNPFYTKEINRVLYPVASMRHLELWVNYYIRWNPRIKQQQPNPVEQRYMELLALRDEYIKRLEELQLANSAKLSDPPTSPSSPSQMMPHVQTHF
UniProt Q9UDX5: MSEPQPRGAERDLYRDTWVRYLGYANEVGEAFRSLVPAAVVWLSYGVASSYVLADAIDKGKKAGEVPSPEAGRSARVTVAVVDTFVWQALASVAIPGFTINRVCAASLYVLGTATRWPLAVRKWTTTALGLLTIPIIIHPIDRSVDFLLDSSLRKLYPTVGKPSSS

How the values were obtained:
Assay in all cases: log2 fold change, soluble protein after heating vs DMSO (PISA); higher = thermal stabilisation; K562 lysate, 10 uM; active = over 0.2 and 3.5 SD of the protein, either way, in both replicates (recomputed)
[1] = compound: CS(=O)(=O)CCNCc1ccc(-c2ccc3ncnc(Nc4ccc(OCc5cccc(F)c5)c(Cl)c4)c3c2)o1 [lapatinib]
How it was run: (§1)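 To prepare the extract, K562 pellets were dounce-homogenised in PBS pH 7.4 with 1 mM MgCl2, giving crude material at 1 mg/mL protein. This was treated with 10 μM compound for 30 min, then heated in aliquots for 3 min over 48°C-58°C before pooling and addition of NP-40 to 0.5% at 4°C. Centrifugation at 21,000xg for 90 min left soluble protein in the supernatant, which TMTpro 16plex LC-MS/MS quantified with equalised channel sums. Results are log-two fold changes in thermal stability compared with solvent controls, from duplicates.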

[2] = compound: CS(=O)(=O)N1CCN(Cc2cc3nc(-c4cccc5[nH]ncc45)nc(N4CCOCC4)c3s2)CC1 [pictilisib]
How it was run: as §1

[3] = compound: C[C@@H](Oc1cc(-c2cnn(C3CCNCC3)c2)cnc1N)c1c(Cl)ccc(F)c1Cl [crizotinib]
How it was run: as §1

[4] = compound: C[C@H](C1=CC=C(C=C1)C(=O)NC2=C3C=CNC3=NC=C2)N
How it was run: as §1

[5] = compound: C[C@H](Nc1ncnc2nc[nH]c12)c1cc2cccc(Cl)c2c(=O)n1-c1ccccc1 [duvelisib]
How it was run: as §1

[6] = compound: Cc1cc(Nc2cc(CN3CCOCC3)c3nc(C)c(Cc4ccc(Cl)cc4F)n3n2)n[nH]1 [gandotinib]
How it was run: as §1

[7] = compound: Cc1cc(Nc2cc(N3CCN(C)CC3)nc(Sc3ccc(NC(=O)C4CC4)cc3)n2)n[nH]1 [tozasertib]
How it was run: as §1

[8] = compound: Cc1ccc(-n2nc(C(C)(C)C)cc2NC(=O)Nc2ccc(OCCN3CCOCC3)c3ccccc23)cc1 [doramapimod]
How it was run: as §1

[9] = compound: Cc1ccc(NC(=O)c2ccc(CN3CC[C@H](N(C)C)C3)c(C(F)(F)F)c2)cc1Nc1nccc(-c2cncnc2)n1 [bafetinib]
How it was run: as §1

[10] = compound: Cc1cccc(CC(=O)N2CCc3c2ccc(-c2cn(C)c4ncnc(N)c24)c3F)n1
How it was run: as §1

[11] = compound: Cc1cn(-c2cc(NC(=O)c3ccc(C)c(Nc4nccc(-c5cccnc5)n4)c3)cc(C(F)(F)F)c2)cn1 [nilotinib]
How it was run: as §1

[12] = compound: Cc1nc(Nc2n[nH]c3c2CN(C(=O)N[C@H](CN(C)C)c2ccccc2)C3(C)C)c2sccc2n1
How it was run: as §1

[13] = compound: Cc1nc(Nc2ncc(C(=O)Nc3c(C)cccc3Cl)s2)cc(N2CCN(CCO)CC2)n1 [dasatinib]
How it was run: as §1

[14] = compound: Cc1ncc(-c2ccnc(Nc3ccc(S(C)(=O)=O)cc3)n2)n1C(C)C
How it was run: as §1

[15] = compound: Cn1cc(-c2ccc3c(c2)CCN3C(=O)Cc2cccc(C(F)(F)F)c2)c2c(N)ncnc21
How it was run: as §1

[16] = compound: Cn1cc(CNCC2CCN(c3ncc(C(=O)NO)cn3)CC2)c2ccccc21 [quisinostat]
How it was run: as §1

[17] = compound: Cn1cncc1[C@@](N)(c1ccc(Cl)cc1)c1ccc2c(c1)c(-c1cccc(Cl)c1)cc(=O)n2C [tipifarnib]
How it was run: as §1

[18] = compound: NC(=O)Nc1cc(-c2cccc(F)c2)sc1C(=O)N[C@H]1CCCNC1
How it was run: as §1

[19] = compound: NC(=O)c1cnc(N[C@@H]2CCCC[C@@H]2N)nc1Nc1cccc(-n2nccn2)c1
How it was run: as §1

[20] = compound: NC1(c2ccc(-c3nc4ccn5c(=O)[nH]nc5c4cc3-c3ccccc3)cc2)CCC1
How it was run: as §1

Target	log2 fold change [1]	log2 fold change [2]	log2 fold change [3]	log2 fold change [4]	log2 fold change [5]	log2 fold change [6]	log2 fold change [7]	log2 fold change [8]	log2 fold change [9]	log2 fold change [10]	log2 fold change [11]	log2 fold change [12]	log2 fold change [13]	log2 fold change [14]	log2 fold change [15]	log2 fold change [16]	log2 fold change [17]	log2 fold change [18]	log2 fold change [19]	log2 fold change [20]
MRPL4 (UniProt Q9BYD3)	inactive: 0.039	inactive: -0.007	inactive: -0.025	inactive: 0.145	inactive: 0.059	inactive: -0.107	inactive: -0.006	inactive: -0.01	inactive: 0.013	inactive: -0.134	inactive: 0.086	inactive: -0.022	inactive: -0.052	inactive: 0.056	inactive: -0.027	inactive: -0.003	inactive: -0.042	inactive: 0.044	inactive: 0.001	inactive: -0.047
MTHFD1, A0A384N5Y3	inactive: -0.008	inactive: -0.003	inactive: -0.064	inactive: 0.04	inactive: 0.015	inactive: -0.087	inactive: 0.028	inactive: 0.043	inactive: -0.041	inactive: -0.025	inactive: 0.005	inactive: -0.018	inactive: -0.081	inactive: -0.008	inactive: 0.032	inactive: -0.044	inactive: -0.02	inactive: 0.039	inactive: 0.008	inactive: -0.017
MRPS7 (UniProt Q9Y2R9)	inactive: 0.04	inactive: -0.07	inactive: -0.02	inactive: 0.046	inactive: 0.021	inactive: -0.046	inactive: 0.02	inactive: 0.06	inactive: -0.045	inactive: 0.011	inactive: 0.005	inactive: -0.023	inactive: -0.013	inactive: 0.037	inactive: 0.047	inactive: 0.044	inactive: 0.037	inactive: 0.002	inactive: 0	inactive: -0.019
MT-ATP6 (UniProt P00846)	inactive: -0.112	inactive: -0.095	inactive: -0.053	inactive: -0.082	inactive: 0.058	inactive: 0.047	inactive: 0.181	inactive: 0.008	inactive: 0.154	inactive: 0.175	inactive: 0	inactive: -0.068	inactive: -0.147	inactive: 0.026	inactive: 0.224	inactive: 0.012	inactive: -0.119	inactive: -0.02	inactive: -0.109	inactive: 0
MRPS23 (UniProt Q9Y3D9)	inactive: 0.005	inactive: -0.051	inactive: -0.003	inactive: 0.093	inactive: -0.028	inactive: -0.113	inactive: 0.015	inactive: 0.044	inactive: -0.059	inactive: -0.112	inactive: -0.036	inactive: 0.005	inactive: 0.021	inactive: 0.071	inactive: 0.035	inactive: 0.046	inactive: 0.039	inactive: -0.019	inactive: 0.036	inactive: 0.069
MTPN (UniProt P58546)	inactive: 0.155	inactive: 0.042	inactive: 0.04	inactive: 0.238	inactive: -0.002	inactive: -0.198	inactive: 0.039	inactive: -0.05	inactive: -0.014	inactive: -0.237	inactive: 0.074	inactive: 0.01	inactive: 0.04	inactive: 0.054	inactive: -0.036	inactive: 0.057	inactive: -0.019	inactive: -0.047	inactive: -0.018	inactive: 0.029
MRPS30 (UniProt Q9NP92)	inactive: 0.003	inactive: -0.009	inactive: -0.032	inactive: -0.281	inactive: 0.065	inactive: 0.154	inactive: 0.028	inactive: -0.009	inactive: -0.157	inactive: 0.198	inactive: 0.016	inactive: -0.038	inactive: -0.092	inactive: -0.008	inactive: 0.025	inactive: -0.106	inactive: -0.001	inactive: 0.041	inactive: 0.259	inactive: -0.04
MTERF3 (UniProt Q96E29)	inactive: -0.203	inactive: 0.01	inactive: -0.026	inactive: 0.03	inactive: 0.02	inactive: 0.089	inactive: 0.002	inactive: -0.002	inactive: -0.191	inactive: 0.031	inactive: -0.014	inactive: -0.073	inactive: -0.14	inactive: -0.004	inactive: 0.063	inactive: -0.037	inactive: -0.004	inactive: 0.025	inactive: 0.008	inactive: -0.198
MT-CO2 (UniProt P00403)	inactive: -0.114	inactive: -0.117	inactive: -0.02	inactive: 0.053	inactive: -0.026	inactive: -0.075	inactive: 0.015	inactive: -0.018	inactive: 0.038	inactive: -0.02	inactive: -0.014	inactive: -0.104	inactive: 0.017	inactive: 0.065	inactive: 0.012	inactive: -0.023	inactive: 0.009	inactive: -0.016	inactive: -0.096	inactive: 0.033
MRPL3 (UniProt P09001)	inactive: 0.021	inactive: 0.048	inactive: -0.006	inactive: -0.102	inactive: 0.076	inactive: 0.006	inactive: 0.046	inactive: -0.038	inactive: -0.025	inactive: 0.025	inactive: -0.002	inactive: -0.008	inactive: -0.029	inactive: -0.025	inactive: 0.093	inactive: -0.049	inactive: -0.003	inactive: 0.074	inactive: -0.054	inactive: 0.025
MTCH2 (UniProt Q9Y6C9)	inactive: -0.023	inactive: -0.018	inactive: -0.059	inactive: -0.144	inactive: -0.011	inactive: 0.142	inactive: -0.028	inactive: 0.024	inactive: -0.04	inactive: 0.022	inactive: 0.044	inactive: -0.005	inactive: 0	inactive: -0.014	inactive: -0.024	inactive: -0.104	inactive: 0.018	inactive: 0	inactive: -0.027	inactive: 0.001
MRPL50 (UniProt Q8N5N7)	inactive: 0.048	inactive: 0.006	inactive: -0.038	inactive: -0.11	inactive: 0.045	inactive: 0.036	inactive: 0.044	inactive: 0.004	inactive: 0.059	inactive: 0.093	inactive: 0.001	inactive: 0.033	inactive: -0.027	inactive: 0.106	inactive: 0.057	inactive: 0.035	inactive: 0.038	inactive: -0.044	inactive: -0.026	inactive: -0.022
MRPS34 (UniProt P82930)	inactive: 0.027	inactive: 0.023	inactive: 0.043	inactive: 0.06	inactive: -0.035	inactive: -0.048	inactive: 0.022	inactive: 0.046	inactive: 0.094	inactive: 0.01	inactive: 0.043	inactive: -0.052	inactive: -0.023	inactive: -0.068	inactive: 0.02	inactive: 0.05	inactive: -0.01	inactive: 0	inactive: -0.02	inactive: -0.039
MTM1 (UniProt Q13496)	inactive: 0.017	inactive: -0.038	inactive: 0.027	inactive: -0.06	inactive: 0.004	inactive: 0.027	inactive: -0.04	inactive: -0.064	inactive: 0.017	inactive: -0.01	inactive: -0.003	inactive: 0	inactive: 0.022	inactive: 0.025	inactive: -0.009	inactive: -0.036	inactive: 0.006	inactive: 0.019	inactive: -0.008	inactive: -0.017
MRPL42 (UniProt Q9Y6G3)	inactive: -0.001	inactive: 0.004	inactive: 0.005	inactive: 0.011	inactive: 0.006	inactive: 0.014	inactive: -0.064	inactive: 0.027	inactive: -0.042	inactive: 0.006	inactive: -0.005	inactive: 0.052	inactive: -0.092	inactive: 0.043	inactive: -0.039	inactive: -0.051	inactive: -0.136	inactive: 0.08	inactive: -0.029	inactive: -0.097
MTFP1 (UniProt Q9UDX5)	inactive: 0.026	inactive: 0.017	inactive: 0.097	active: -0.364	inactive: -0.01	inactive: 0.059	inactive: 0.006	inactive: -0.043	inactive: 0.01	inactive: 0.067	inactive: 0.044	inactive: -0.021	inactive: 0.069	inactive: 0.043	inactive: 0.008	inactive: 0.133	inactive: -0.014	inactive: 0.02	inactive: -0.103	inactive: -0.004

Looked up above.
MTFP1 (UniProt Q9UDX5) – log2 fold change [2]: inactive: 0.017
MRPS7 (UniProt Q9Y2R9) – log2 fold change [7]: inactive: 0.02
